Reference: PubChem BioAssay AID652272 (Drosophila RNAi Screening Center, 2013)
The deposit covers about 21,000 reagents; shown is a random part of those that have a named target and a result. Over the whole deposit, 503 (2.4%) got an active call. 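Raw plate light values, not normalised; calls rest on replicate z-scores that were not deposited; hits include reporter decreases as well as increases.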 Entries without a mark were called inactive. Reagents against one gene are numbered here. Names joined by + are all predicted targets of the reagent. The record does not give: the amount of reagent, the time to read-out.

Aim: 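Genome-wide knock-down search for components of Hedgehog signalling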 (primary screen)
Cell system: Drosophila clone 8 (Cl8) cells
Reagents: long dsRNA against Drosophila genes
Detection: 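Firefly light from a Hedgehog-responsive ptc promoter reporter and Renilla reference light, both read on a plate reader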
Direction: firefly Hh reporter signal: higher = more ptc reporter light; Renilla reference signal: higher = more Renilla control light
Call rule: 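Hit when the z-score averaged over two replicates is under -2 or over +3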
Calls: active = hit: reporter lowered or raised; inactive = not a hit

gene knocked down	reagent	firefly Hh reporter signal, replicate 1	firefly Hh reporter signal, replicate 2	firefly Hh reporter signal, replicate 3	Renilla reference signal, replicate 1	Renilla reference signal, replicate 2
CG13471	1	87958			2029	2396
Ost48 (Oligosaccharyltransferase 48kD subunit)	1	94688	80656		2341	1869
p24-1 (p24-related-1)	1	40091	1.27e5		1312	5331
Alp4 (Alkaline phosphatase 4)	1	90099	1.68e5		2979	4567
CG14431	1	84971	2.74e5		3336	10988
CG14431	2	42774	1.19e5		1280	5079
Alg9 (ALG9, alpha-1,2-mannosyltransferase)	1	1.17e5	66490		4583	2236
Cog1 (Component of oligomeric golgi complex 1)	1	1.28e5	88660		5274	3122
Cpr57A + Obp57d	1	86749	49248		3968	1840
Hmr (Hybrid male rescue)	1	44080	1.91e5		1318	7264
cd (cardinal)	1	5.13e5	1.13e5		27738	3622
CG42826	1	49394	88688	62849	6441	3826
CG16986	1	99339	50464		2819	3925
dgt2 (dim gamma-tubulin 2)	1	74146	50592		1604	4416
CG33465	1	1.15e5	2.05e5		2908	9290
CG14823	1	82404	71814		3473	3089
tsu (tsunagi)	1	1.30e5	67760		2903	4893
CG8248	1	75562	41989		3013	1853
CG6891	1	1.93e5	1.24e5		4160	3234
CG15705	1	61776	43984		1788	2748
Gabat (gamma-aminobutyric acid transaminase)	1	97600	1.19e5		3072	2937
Cyp309a1 (Cytochrome P450 309a1)	1	89345	94445		2498	2229
CG6216	1	33504	84496	51581	7015	3680

2 successive entries already listed, for reference:
gene knocked down	reagent	firefly Hh reporter signal, replicate 1	firefly Hh reporter signal, replicate 2	firefly Hh reporter signal, replicate 3	Renilla reference signal, replicate 1	Renilla reference signal, replicate 2
CG14823	1	82404	71814		3473	3089
tsu (tsunagi)	1	1.30e5	67760		2903	4893
